Source: PubChem BioAssay AID504749 (NCATS, 2011).

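Malaria parasite (P. falciparum) lines kept in red blood cells; parasite DNA is measured by SYBR Green fluorescence after lysis, 72 h after compound addition. Each compound was titrated across a series from about 0.000037 to 29 µM. The number is the fitted AC50, the concentration giving a half-maximal change in signal; a lower value means higher potency, whether the curve shows a decrease or an increase. Calls follow the curve class and fit quality: every row here is inconclusive, covering signal-raising curves and weak, poorly fitted, partial or highest-dose-only inhibition curves.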

Values are in nM. All entries here are filed as inconclusive. Only part of the assay is shown, chiefly results filed as inconclusive. A potency from a partial, single-point or poor curve is only a rough figure.

| SMILES | tested on / at | fitted potency (nM) | curve as filed |
|---|---|---|---|
| `Nc1ccc(S(=O)(=O)Nc2ccc(Cl)nn2)cc1` | CP250 | 1585 | inhibitor, single point |
| `Nc1ccc(S(=O)(=O)Nc2ccc(Cl)nn2)cc1` | P93_24 | 1412 | inhibitor, single point |
| `Nc1ccc(S(=O)(=O)Nc2ccc(Cl)nn2)cc1` | CP238 | 1259 | inhibitor, single point |
| `Nc1ccc(S(=O)(=O)Nc2ccc(Cl)nn2)cc1` | DFO2036 | 1122 | inhibitor, single point |
| `Nc1ccc(S(=O)(=O)Nc2ccc(Cl)nn2)cc1` | AA1029 | 1585 | inhibitor, single point |
| `Nc1ccc(S(=O)(=O)Nc2ccc(Cl)nn2)cc1` | HB3 | 1585 | inhibitor, single point |
| `Nc1ccc(S(=O)(=O)Nc2ccc(Cl)nn2)cc1` | C2A | 1122 | inhibitor, single point |
| `Nc1ccc(S(=O)(=O)Nc2ccc(Cl)nn2)cc1` | ATS95 | 1585 | inhibitor, single point |
| `C[C@]12C[C@H](O)[C@H]3[C@@H](CCC4=CC(=O)CC[C@@]43C)[C@@H]1CC[C@@H]2C(=O)CO` | FAB9 | 12589 | inhibitor, single point |
| `C[C@]12C[C@H](O)[C@H]3[C@@H](CCC4=CC(=O)CC[C@@]43C)[C@@H]1CC[C@@H]2C(=O)CO` | CP217 | 14125 | inhibitor, single point |
| `C[C@]12C[C@H](O)[C@H]3[C@@H](CCC4=CC(=O)CC[C@@]43C)[C@@H]1CC[C@@H]2C(=O)CO` | DFO2036 | 17782 | inhibitor, single point |
| `C[C@]12C[C@H](O)[C@H]3[C@@H](CCC4=CC(=O)CC[C@@]43C)[C@@H]1CC[C@@H]2C(=O)CO` | CP256 | 17782 | inhibitor, single point |
| `C[C@]12C[C@H](O)[C@H]3[C@@H](CCC4=CC(=O)CC[C@@]43C)[C@@H]1CC[C@@H]2C(=O)CO` | TAB113 | 17782 | inhibitor, single point |
| `C[C@]12C[C@H](O)[C@H]3[C@@H](CCC4=CC(=O)CC[C@@]43C)[C@@H]1CC[C@@H]2C(=O)CO` | Dd2 | 10000 | inhibitor, single point |
| `C[C@]12C[C@H](O)[C@H]3[C@@H](CCC4=CC(=O)CC[C@@]43C)[C@@H]1CC[C@@H]2C(=O)CO` | PC49 | 17782 | inhibitor, single point |
| `C[C@]12C[C@H](O)[C@H]3[C@@H](CCC4=CC(=O)CC[C@@]43C)[C@@H]1CC[C@@H]2C(=O)CO` | ECU | 12589 | inhibitor, partial curve |
| `C[C@]12C[C@H](O)[C@H]3[C@@H](CCC4=CC(=O)CC[C@@]43C)[C@@H]1CC[C@@H]2C(=O)CO` | SC27B | 17782 | inhibitor, single point |
| `C[C@]12C[C@H](O)[C@H]3[C@@H](CCC4=CC(=O)CC[C@@]43C)[C@@H]1CC[C@@H]2C(=O)CO` | N140 | 17782 | inhibitor, single point |
| `C[C@]12C[C@H](O)[C@H]3[C@@H](CCC4=CC(=O)CC[C@@]43C)[C@@H]1CC[C@@H]2C(=O)CO` | ATS189 | 17782 | inhibitor, single point |
| `C[C@]12C[C@H](O)[C@H]3[C@@H](CCC4=CC(=O)CC[C@@]43C)[C@@H]1CC[C@@H]2C(=O)CO` | P93_24 | 17782 | inhibitor, single point |
| `C[C@]12C[C@H](O)[C@H]3[C@@H](CCC4=CC(=O)CC[C@@]43C)[C@@H]1CC[C@@H]2C(=O)CO` | HB3 | 15848 | inhibitor, single point |
| `C[C@]12C[C@H](O)[C@H]3[C@@H](CCC4=CC(=O)CC[C@@]43C)[C@@H]1CC[C@@H]2C(=O)CO` | CP238 | 10000 | inhibitor, single point |
| `C[C@]12C[C@H](O)[C@H]3[C@@H](CCC4=CC(=O)CC[C@@]43C)[C@@H]1CC[C@@H]2C(=O)CO` | JCK | 11220 | inhibitor, single point |
| `C[C@]12C[C@H](O)[C@H]3[C@@H](CCC4=CC(=O)CC[C@@]43C)[C@@H]1CC[C@@H]2C(=O)CO` | CP191 | 10000 | inhibitor, single point |
| `C[C@]12C[C@H](O)[C@H]3[C@@H](CCC4=CC(=O)CC[C@@]43C)[C@@H]1CC[C@@H]2C(=O)CO` | CP247 | 10000 | inhibitor, single point |